Measured values published in US20150203575A1.
These are yes or no findings as the source states them, for the method shown. Some binding calls cover weakened binding; strength is not graded here. Sequences can lack the tags named with a protein.

By UniProt entry, the sequences of proteins in these tests, tags left out. Where a name states a change or a piece, a line headed by the entry shows the natural chain unless it says otherwise.
UniProt Q2YFS3: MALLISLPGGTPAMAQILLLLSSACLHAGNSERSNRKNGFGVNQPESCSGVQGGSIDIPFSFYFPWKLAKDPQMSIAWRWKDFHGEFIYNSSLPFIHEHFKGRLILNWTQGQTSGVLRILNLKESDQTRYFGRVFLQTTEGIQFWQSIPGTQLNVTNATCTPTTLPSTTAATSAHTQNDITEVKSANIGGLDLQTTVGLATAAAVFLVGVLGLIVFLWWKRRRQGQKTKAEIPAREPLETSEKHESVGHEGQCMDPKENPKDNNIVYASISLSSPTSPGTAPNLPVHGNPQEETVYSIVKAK
UniProt Q9UKJ1: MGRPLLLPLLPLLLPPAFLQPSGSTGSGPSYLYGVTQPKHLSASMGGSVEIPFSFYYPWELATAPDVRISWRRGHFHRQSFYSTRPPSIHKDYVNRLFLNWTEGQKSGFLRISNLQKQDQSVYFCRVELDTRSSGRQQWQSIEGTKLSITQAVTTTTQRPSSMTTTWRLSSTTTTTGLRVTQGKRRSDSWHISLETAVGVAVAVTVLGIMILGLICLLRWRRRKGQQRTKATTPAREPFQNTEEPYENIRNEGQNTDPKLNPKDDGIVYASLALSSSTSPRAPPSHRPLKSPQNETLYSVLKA

Assays:
[1] = target: mouse PILRα expressed on 293T cells (mouse) (UniProt Q2YFS3); assay: flow cytometry, transfected 293T cells, PILRα-positive cells gated
[2] = target: human PILRα expressed on 293T cells (human) (UniProt Q9UKJ1); assay: as above
[3] = target: mouse PILRα expressed on 293T cells (mouse) (UniProt Q2YFS3); assay: FACS on 293T transfectants (FIG. 5B)
[4] = target: human PILRα expressed on 293T cells (human) (UniProt Q9UKJ1); assay: FACS on 293T transfectants (FIG. 5B)

Measured: binding

B1: mCD99-Fc (Fc fusion, mouse, UniProt Q8VCN6 29-137, looked up, not shown: a dimerising Fc or GST)
chain: DDFNLGDALEDPNMKPTPKAPTPKKPSGGFDLEDALPGGGGGGAGEKPGNRPQPDPKPPRPHGDSGGISDSDLADAAGQGGGGAGRRGSGDEGGHGGAGGAEPEGTPQG
modifications: three O-glycans NeuAc1-2Hex1HexNAc1
binds: [1] | [2] | [3] | [4]
